From PubChem BioAssay AID445 (National Center for Advancing Translational Sciences (NCATS), 2006)
This is one part of the list. Shown are side measurements of this screen, not its main read-out; they come without a call. The list favours compounds with an active or inconclusive main result. Potencies come from curve fits of mixed quality, noted in brackets.

Experiment: IkB Signaling
Conditions: ABC-DLBCL IkBa-CBG/CBR dual luciferase ratio (green luciferase fused to IkBa over red control in OCI-Ly3 lymphoma cells), 4 h; measured here: control luc red channel unless noted
Method in brief: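 In this assay, an IκBα–CBG68 fusion accumulates when IKK-driven degradation is blocked; native CBR normalizes for cell number. OCI-Ly3 cells were treated 4 h with compound and doxycycline, then green and red light read after Chroma-Glo addition.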

| SMILES | AC50 |
| --- | --- |
| CC(C)(C)C1CCc2oc3ccc(NS(=O)(=O)c4ccc(C(=O)O)cc4)cc3c2C1 (stereo not given) | 12.6 µM [falling, partial curve] |
| COc1ccc(CCNc2ncnc3c2cnn3-c2cc(Cl)ccc2C)cc1 | 20 µM [falling, partial curve] |
| Cc1ccc(NC(=O)c2cc(S(=O)(=O)NCCc3ccc(Cl)cc3)ccc2F)cc1 | 25.1 µM [falling, partial curve] |
| CC1CCCCN1C(=O)c1cc(-c2ccc(Br)cc2)on1 (stereo not given) | 15.8 µM [falling, partial curve, poor fit] |
| CCOC(=O)CSc1nc2c(sc3ccccc32)c(=O)n1CCO | 39.8 µM [falling, single point] |
| COc1cc(OC)cc(C(=O)Nc2ncc3c(n2)CC(C)CC3=O)c1 (stereo not given) | 5.01 µM [falling, partial curve] |
| Cc1csc2nc(COc3cccc(NC(=O)c4ccccc4F)c3)cc(=O)n12 | 1 µM [rising, partial curve] |
| Cc1nn(CC(=O)N2CCN(c3ccc(Cl)cc3)CC2)c(=O)c2cccn12 | 15.8 µM [falling, partial curve] |
| Cc1ccc2c(=O)cc(C(=O)Nc3ccc(S(=O)(=O)Nc4ncccn4)cc3)oc2c1C | 15.8 µM [falling, partial curve] |
| O=C(CSc1nc2c([nH]c3ccccc32)c(=O)n1-c1ccc(Cl)cc1)c1ccccc1 | 3.16 µM [rising, partial curve] |
| COc1ccc(NCc2cccn2-c2nnc(N3CCCCC3)s2)cc1OC | 39.8 µM [falling, single point] |
| CCOc1ccc(NC(=O)c2c(NC(=O)Cc3ccccc3)sc3c2CCCCC3)cc1 | 3.98 µM [falling, full curve, poor fit] |
| Cc1ccc(NC(=O)CSc2cn(CC(=O)N3CCCC3)c3ccccc23)cc1Cl | 10 µM [falling, partial curve] |
| COc1cccc(CNC(=O)Cn2nc(-c3ccc(Cl)cc3)ccc2=O)c1 | 12.6 µM [falling, partial curve] |
| COc1ccccc1-c1cc(C(=O)Nc2c(F)cc(F)cc2Br)no1 | 0.00251 µM [falling, full curve] |
| COc1ccc2c(c1)c(=O)c(S(=O)(=O)c1ccccc1)cn2CC(=O)Nc1ccc(C)c(Cl)c1 | 7.94 µM [falling, partial curve] |
| COc1ccc(-n2cc(C(=O)NCCc3cc(OC)ccc3OC)c3ccccc3c2=O)cc1 | 25.1 µM [falling, single point] |
| CC1=C(C(=O)Nc2ccc(C)cc2C)C(c2cccs2)n2nc(SCc3cccc(C)c3)nc2N1 (stereo not given) | 1.58 µM [falling, full curve] |
| CCCc1nn2c(=O)cc(COC(=O)c3ccccc3NC(=O)COc3ccccc3)nc2s1 | 15.8 µM [falling, partial curve] |
| CCOC(=O)N1CCc2c(sc3c2C(=O)NC(c2cc(OC)c(OC)c(OC)c2)N3)C1 (stereo not given) | 20 µM [falling, single point] |

Random excerpt: two compounds from above, in no set order.

| SMILES | AC50 |
| --- | --- |
| CCCc1nn2c(=O)cc(COC(=O)c3ccccc3NC(=O)COc3ccccc3)nc2s1 | 15.8 µM [falling, partial curve] |
| COc1ccc2c(c1)c(=O)c(S(=O)(=O)c1ccccc1)cn2CC(=O)Nc1ccc(C)c(Cl)c1 | 7.94 µM [falling, partial curve] |

Next part

| SMILES | AC50 |
| --- | --- |
| COc1ccccc1NC(=O)c1c(NCc2ccc(C)o2)sc2c1CCCCC2 | 15.8 µM [falling, partial curve] |
| Cc1ccc(-c2nnc(SCC(=O)Nc3ccccc3F)o2)cc1 | 0.00794 µM [falling, full curve] |
| COc1ccc(-c2cc(C(F)(F)F)n3nc(-c4ccccc4)cc3n2)cc1OC | 39.8 µM [falling, single point] |
| CCc1ccc(NC(=O)Cn2c(=O)n(CCC(C)C)c(=O)c3cccnc32)cc1 | 3.98 µM [rising, single point] |
| CCOC(=O)C1CCN(Cc2nc3ccccc3c(=O)n2-c2ccc(OCC)cc2)CC1 | 12.6 µM [falling, partial curve] |
| Cc1cc(Cl)ccc1OCCCC(=O)Nc1cccnc1 | 31.6 µM [falling, single point] |
| CCCCSc1nnc2n(-c3ccc(OC)cc3)c(=O)c3c4c(sc3n12)COC(C(C)C)C4 (stereo not given) | 7.94 µM [falling, full curve] |
| COc1cc(CN2CCN(S(=O)(=O)c3ccc(NC(C)=O)cc3)CC2)cc(OC)c1OC | 1.58 µM [rising, partial curve] |
| O=C1N(Cc2ccccc2Cl)c2ccccc2C1(O)c1c[nH]c2ccccc12 (stereo not given) | 25.1 µM [falling, single point] |
| Cc1cc2nc(-c3cccnc3SCC(=O)NCc3ccco3)[nH]c2cc1C | 15.8 µM [falling, partial curve] |
| O=C(COC(=O)c1ccccc1NC(=O)c1ccco1)Nc1ccc2c(c1)OCO2 | 20 µM [falling, partial curve] |
| CCn1cc(C(=O)NCCc2ccc(OC)c(OC)c2)c(=O)c2cc(S(=O)(=O)N3CCCCCC3)ccc21 | 1.58 µM [rising, partial curve] |
| COc1ccccc1NC(=O)c1oc2ccccc2c1NC(=O)COc1cccc(C)c1 | 5.01 µM [rising, partial curve] |
| Cc1ccc2oc(-c3ccc(C)c(NC(=O)C(C)(C)Oc4ccc(Cl)cc4)c3)nc2c1 | 0.794 µM [falling, partial curve] |
| CCOc1ccc(NC(=O)CSc2oc(-c3ccc(F)cc3)nc2S(=O)(=O)c2ccc(C)cc2)cc1 | 12.6 µM [falling, partial curve] |
| Clc1ccccc1-c1nnc(COc2ccccc2)o1 | 0.02 µM [rising, full curve] |
| Cc1nc2nc(NC(=O)c3ccc(C(C)(C)C)cc3)[nH]n2c(=O)c1Cc1ccccc1 | 39.8 µM [falling, single point] |
| CCOC(=O)c1ccc(NC(=O)CSc2nc3cc4ccccc4cc3[nH]2)cc1 | 5.01 µM [falling, full curve] |
| O=C(Nc1ccc(Br)cc1F)c1cc(S(=O)(=O)NC2CCCCC2)ccc1F | 0.2 µM [falling, full curve, poor fit] |
| CCCn1nc(NC(=O)c2ccncc2)c2cc3ccccc3nc21 | 12.6 µM [falling, partial curve] |
